For part of these data: Negatives hold for the conditions tested. For part of these data: Construct, isoform or probe ends are uncertain for at least one entry. For part of these data: Protein sequences can lack the tags named with them.
What was measured:
[1] = target: T1, Alba1 (Ape10b1) (Aeropyrum pernix) (UniProt Q9YAW1); test: ITC; details: 25 C, ITC: 50 mM NaH2PO4, pH 7.0, 25 C, recombinant protein, residues 1-94
T1 sequence (looked up): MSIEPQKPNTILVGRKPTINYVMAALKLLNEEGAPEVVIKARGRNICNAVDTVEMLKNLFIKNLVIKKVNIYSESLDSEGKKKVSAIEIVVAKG

Chains of the proteins cited; added tags and fusions are not shown. Residues count along the entry.
UniProt P02769, 25-607: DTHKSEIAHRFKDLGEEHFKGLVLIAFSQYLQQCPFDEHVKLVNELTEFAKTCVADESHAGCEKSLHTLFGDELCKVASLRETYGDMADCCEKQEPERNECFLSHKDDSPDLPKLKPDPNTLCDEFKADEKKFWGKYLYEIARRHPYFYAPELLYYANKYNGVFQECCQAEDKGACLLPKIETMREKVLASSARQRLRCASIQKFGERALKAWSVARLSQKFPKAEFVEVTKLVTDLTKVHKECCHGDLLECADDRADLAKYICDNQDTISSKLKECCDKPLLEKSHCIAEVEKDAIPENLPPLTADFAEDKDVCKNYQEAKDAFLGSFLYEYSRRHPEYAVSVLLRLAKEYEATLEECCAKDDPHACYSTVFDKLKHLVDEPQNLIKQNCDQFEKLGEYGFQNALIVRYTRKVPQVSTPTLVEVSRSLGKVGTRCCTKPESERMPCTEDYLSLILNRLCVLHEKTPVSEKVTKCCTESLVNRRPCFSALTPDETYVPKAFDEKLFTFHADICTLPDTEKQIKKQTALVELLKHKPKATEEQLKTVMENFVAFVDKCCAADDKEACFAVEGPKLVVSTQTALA

[2] = target: bovine serum albumin (Bos taurus) (UniProt P02769); test: SPR; details: negative control, 6.0 uM; SPR: 50 mM NaH2PO4, 150 mM NaCl, 0.005% P20, pH 7.0, 25 C; commercial protein; label: 5'-biotin on one strand (S1)

ACGTACGTACGTACGTACGTACGTACGTACGTACGTACGTACGTACGT (double strand) [B-DNA]
Ka ([1]; pH 7.0, n=0.11 per bp): 0.8 10^6 M-1

CCCCCCCGTGAAAGCCTAGACAGCGAGGCCCCCCC (double strand) [SPRspecAP]
binding result [2]: no binding

CCCGGGCCCGGGCCCGGGCCCGGGCCCGGGCCCGGGCCCGGGCCCGGG (double strand) [A-DNA]
Ka ([1]; pH 7.0, n=0.15 per bp): 2.4 10^6 M-1

From publication PMC3585288
